According to paper PMC7886681, “Characterization and Validation of Arg286 Residue of IL-1RAcP as a Potential Drug Target for Osteoarthritis” (Frontiers in Chemistry, 2021):
These are yes or no findings as the source states them, for the method shown. Some entries that bind do so weakly or less than the wild type.

Chains of the proteins cited; added tags and fusions are not shown. Residues count along the entry.
UniProt Q9NPH3, residues 21-367: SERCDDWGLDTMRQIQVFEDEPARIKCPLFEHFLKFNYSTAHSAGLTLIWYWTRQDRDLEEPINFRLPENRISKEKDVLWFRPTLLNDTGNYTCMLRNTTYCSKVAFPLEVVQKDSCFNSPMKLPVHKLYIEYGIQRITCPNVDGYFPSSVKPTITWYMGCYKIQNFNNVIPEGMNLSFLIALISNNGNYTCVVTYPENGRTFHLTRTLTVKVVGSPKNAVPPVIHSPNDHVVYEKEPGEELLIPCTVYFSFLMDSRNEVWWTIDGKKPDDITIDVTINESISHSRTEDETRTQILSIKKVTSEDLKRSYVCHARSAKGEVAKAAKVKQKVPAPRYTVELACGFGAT
UniProt P01584, residues 117-269: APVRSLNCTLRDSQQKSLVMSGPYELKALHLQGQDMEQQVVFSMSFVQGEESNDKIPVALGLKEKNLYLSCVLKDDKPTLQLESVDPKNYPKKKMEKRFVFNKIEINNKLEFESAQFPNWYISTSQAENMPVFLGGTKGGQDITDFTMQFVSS

Biological target: 6xHis-tagged interleukin 1 receptor accessory protein (IL-1RAcP) (UniProt Q9NPH3)
Experiment: pull-down; IL-1β (20 ng/µl), IL-1RI (100 ng/µl) and 6xHis-tagged IL-1RAcP (40 ng/µl) incubated with or without peptide at various concentrations in 50 µl PBS, 1 h, room temperature; captured on anti-6xHis antibody on Protein G magnetic beads; washed in phosphate buffer pH 7.0; western blot with anti-IL-1β; band intensity relative to the control without peptide; both purified

Substance: interleukin 1β (IL-1β) (from UniProt P01584 117-269) (ligand)
- binding: binds
